This is an account of results in publication PMC3798263.

The experiment has as its target T1, HOS5-FLAG from transgenic Arabidopsis lines (Arabidopsis) (UniProt Q8W4B1).
T1 sequence: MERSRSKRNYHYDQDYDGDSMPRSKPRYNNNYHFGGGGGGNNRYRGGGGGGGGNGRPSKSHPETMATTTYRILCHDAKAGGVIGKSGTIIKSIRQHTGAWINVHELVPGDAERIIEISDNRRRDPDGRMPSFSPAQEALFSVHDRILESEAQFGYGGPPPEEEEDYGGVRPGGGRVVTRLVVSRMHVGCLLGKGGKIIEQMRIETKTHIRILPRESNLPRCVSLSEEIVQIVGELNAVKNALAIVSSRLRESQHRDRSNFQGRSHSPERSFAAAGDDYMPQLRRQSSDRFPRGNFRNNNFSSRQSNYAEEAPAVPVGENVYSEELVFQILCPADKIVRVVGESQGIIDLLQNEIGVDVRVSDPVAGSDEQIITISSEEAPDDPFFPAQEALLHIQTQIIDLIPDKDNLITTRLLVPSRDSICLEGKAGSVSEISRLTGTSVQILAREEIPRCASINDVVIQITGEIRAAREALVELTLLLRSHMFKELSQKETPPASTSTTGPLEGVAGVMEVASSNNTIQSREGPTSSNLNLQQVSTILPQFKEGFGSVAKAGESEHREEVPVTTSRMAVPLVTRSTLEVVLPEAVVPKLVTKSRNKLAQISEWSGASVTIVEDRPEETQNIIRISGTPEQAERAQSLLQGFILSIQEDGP
Put plainly: affinity purification with mass spectrometry; protein extracts of HOS5-FLAG-tagged Arabidopsis lines (Col-0 as control), anti-FLAG M2 beads, lysis buffer with 100 mM KCl, 10 mM HEPES, 0.1% NP-40; elution with 3x FLAG peptide, trypsin digestion, mass spectrometry.

These are yes or no findings as the source states them, for the method shown. Binding seen in cells or lysates may run through a third protein. Here binding means that the protein was enriched with, or labelled near, the bait; the list need not be complete. Sequences can lack the tags named with a protein.

B1: RS41, endogenous in Arabidopsis (protein, UniProt P92966 1-356)
chain: MKPVFCGNFEYDARESDLERLFRKYGKVERVDMKAGFAFVYMEDERDAEDAIRALDRFEYGRTGRRLRVEWTKNDRGGAGRSGGSRRSSSGLRPSKTLFVINFDAQNTRTRDLERHFEPYGKIVNVRIRRNFAFIQYEAQEDATRALDATNSSKLMDKVISVEYAVKDDDSRGNGYSPERRRDRSPDRRRRSPSPYRRERGSPDYGRGASPVAHKRERTSPDYGRGRRSPSPYKRARLSPDYKRDDRRRERVASPENGAVRNRSPRKGRGESRSPPPYEKRRESRSPPPYEKRRESRSPPPYEKRRERSRSRSKSSPENGQVESPGQIMEVEAGRGYDGADSPIRESPSRSPPAEE
As to B1, the binding result was “binds”.
